Values quoted from earlier work in patent US7902228B2, “Schweinfurthin analogues” (University of Iowa Research Foundation, priority 2004, dated 2011).
Some entries share one result that the patent states for a list of compounds.

Tested on: NCI's 60-cell line
Conditions: NCI's 60-cell line anticancer assay, mean over cell lines

Schweinfurthin A
GI50: < 1000 nM
